Article doi:10.1101/2020.05.14.097329
No constants are given. Whether binding was seen depends on the method and setting. In cells and extracts the contact can be indirect. Some results given as binding are weak or reduced against the parent protein; the word gives no strength.

Protein sequences, listed by entry. Tags and fused reporters are not part of them. Lines headed by an entry give the natural chain unless they say otherwise; changes in a name come on top. Chains listed by the source or under a name are the forms on record and can include a tag or linker.
zinc finger antiviral protein (ZAP), short (S) isoform (Q7Z2W4-2, form named): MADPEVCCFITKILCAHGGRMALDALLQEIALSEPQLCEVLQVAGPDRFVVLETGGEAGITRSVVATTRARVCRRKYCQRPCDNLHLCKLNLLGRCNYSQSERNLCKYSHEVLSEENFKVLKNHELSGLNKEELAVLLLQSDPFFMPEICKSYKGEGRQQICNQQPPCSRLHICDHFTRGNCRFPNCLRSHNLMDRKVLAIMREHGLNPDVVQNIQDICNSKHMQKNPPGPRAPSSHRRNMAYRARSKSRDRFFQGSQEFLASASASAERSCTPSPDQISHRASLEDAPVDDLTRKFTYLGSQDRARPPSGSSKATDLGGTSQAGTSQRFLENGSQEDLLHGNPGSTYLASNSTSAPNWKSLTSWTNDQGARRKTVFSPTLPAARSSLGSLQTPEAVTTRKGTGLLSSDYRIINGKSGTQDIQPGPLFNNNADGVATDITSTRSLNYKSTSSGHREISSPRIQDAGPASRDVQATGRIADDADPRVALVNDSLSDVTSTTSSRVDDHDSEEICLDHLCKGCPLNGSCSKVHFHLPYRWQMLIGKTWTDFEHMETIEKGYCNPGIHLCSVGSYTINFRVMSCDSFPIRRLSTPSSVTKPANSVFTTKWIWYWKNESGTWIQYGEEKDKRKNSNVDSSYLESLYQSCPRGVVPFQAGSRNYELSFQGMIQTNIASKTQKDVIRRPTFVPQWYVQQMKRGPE

Molecular target: T1, oligoadenylate synthetase 3 (OAS3) (human (endogenous in A549)) (UniProt Q9Y6K5)
T1 sequence: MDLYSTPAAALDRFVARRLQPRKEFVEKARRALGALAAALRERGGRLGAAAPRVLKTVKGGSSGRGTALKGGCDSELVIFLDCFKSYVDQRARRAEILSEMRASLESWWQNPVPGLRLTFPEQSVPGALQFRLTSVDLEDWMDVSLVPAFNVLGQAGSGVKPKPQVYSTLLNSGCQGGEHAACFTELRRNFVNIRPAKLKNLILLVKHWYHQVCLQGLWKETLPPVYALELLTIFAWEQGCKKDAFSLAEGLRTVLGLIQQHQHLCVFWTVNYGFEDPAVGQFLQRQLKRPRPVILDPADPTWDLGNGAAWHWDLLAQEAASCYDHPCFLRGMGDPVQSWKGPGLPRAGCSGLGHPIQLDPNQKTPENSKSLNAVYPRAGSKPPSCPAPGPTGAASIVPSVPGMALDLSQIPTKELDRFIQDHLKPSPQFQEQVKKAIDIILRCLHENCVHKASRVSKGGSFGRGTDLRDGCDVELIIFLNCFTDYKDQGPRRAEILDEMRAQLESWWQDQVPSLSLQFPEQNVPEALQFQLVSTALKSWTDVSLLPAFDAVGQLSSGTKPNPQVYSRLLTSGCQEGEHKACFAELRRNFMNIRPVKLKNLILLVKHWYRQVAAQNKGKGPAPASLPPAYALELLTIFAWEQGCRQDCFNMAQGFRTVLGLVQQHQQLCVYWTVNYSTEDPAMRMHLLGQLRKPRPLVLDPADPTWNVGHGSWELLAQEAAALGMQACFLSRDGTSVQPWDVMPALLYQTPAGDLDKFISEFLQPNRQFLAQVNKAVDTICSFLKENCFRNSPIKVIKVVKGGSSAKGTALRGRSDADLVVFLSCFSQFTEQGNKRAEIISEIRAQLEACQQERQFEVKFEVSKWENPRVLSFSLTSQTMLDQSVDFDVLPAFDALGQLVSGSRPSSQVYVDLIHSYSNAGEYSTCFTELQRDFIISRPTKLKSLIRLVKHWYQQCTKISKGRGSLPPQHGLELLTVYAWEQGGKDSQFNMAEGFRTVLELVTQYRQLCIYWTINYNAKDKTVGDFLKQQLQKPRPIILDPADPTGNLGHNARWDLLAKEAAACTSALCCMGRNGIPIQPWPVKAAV
Experiment: co-IP

zinc finger antiviral protein (ZAP), long (L) isoform (from UniProt Q7Z2W4-1 1-902)
binding: binds

zinc finger antiviral protein (ZAP), short (S) isoform (from UniProt Q7Z2W4-2 1-699)
binding: binds
